These results are taken from patent US10233209B2, “Inhibitors of the farnesoid x receptor and uses in medicine” (The United States of America, as represented by the …, priority 2013, dated 2019).

Holding throughout (type): in vivo, mouse
The test system of series [1] is HFD-treated C57BL/6N mice. As to the kind of experiment: Gly-MCA in mice fed a high-fat diet (prevention of obesity, insulin resistance, NAFLD). Particulars: HFD 9 weeks. An excerpt:
(§1) High-fat diet (HFD) (60% kcal consisting of fat) was purchased from Bioserv. […] Fxr^fl/fl and Fxr^ΔIE (Kim et al., J. Lipid Res. 48:2664-2672, 2007) mice were backcrossed with C57BL/6N mice for over 10 generations. For the antibiotic (the combination of bacitracin, neomycin, and streptomycin) study, male C57BL/6N mice from 6 weeks of age were fed a high-fat diet (“HFD) and administered 0.1% (w/v) of each compound (the combination of bacitracin, neomycin, and streptomycin) in the drinking water. […] For TβMCA in vivo, male C57BL/6N mice from 6 weeks of age were fed a HFD and treated with the antibiotics (0.1% of each compound of bacitracin, neomycin, and streptomycin combination) for 3 days. Vehicle (saline), TCA (400 mg/kg body weight, dissolved in saline) or a combination of TCA and TβMCA (400 mg/kg body weight of each compound, dissolved in saline) were orally administered to the mice and followed by a second dose 12 h later. The mice were killed 2 h later for tissue collection. For the Gly-MCA study, Gly-MCA was custom synthesized. Bacon-flavored dough pills were produced as described (Walker et al., Toxicol. Appl. Pharmacol. 260:65-69, 2012) for oral administration of Gly-MCA (0.25 mg Gly-MCA/pill, dose of 10 mg/kg). Mice were trained to eat the dough pills prior to the study. For the prevention of obesity, insulin resistance and NAFLD, male wild-type (WT) C57BL/6N mice, 6- to 8-weeks-old, were fed a high-fat diet (Bio-Serv, Frenchtown, N.J.; 60 kcal % fat) from the age of 6 weeks and were orally administered with vehicle (control pills) or Gly-MCA (0.25 mg/pill/day, dose 10 mg/kg). C57BL/6N mice fed a high-fat diet for 12 weeks were administered (0.25 mg Gly-MCA/pill, dose of 5 mg/kg). Leptin-deficient db/db mice, 6- to 8-weeks-old, fed a chow diet, were administered Gly-MCA (0.25 mg/pill/day, 10 mg/kg). Mice were housed individually in their home cages. Cumulative food intake and TEEbal were measured for 1 week in vehicle and Gly-MCA-treated mice from 6 to 7 weeks of HFD. TEEbal was measured as previously described (Ravussin et al., Int. J. Obesity 37:399-403, 2013).
The mucosa of intestine was gently scraped and liver was taken and both were flash frozen in liquid nitrogen and stored at −80° C. until RNA was prepared. RNA was extracted from frozen intestine and liver using TRIzol reagent (Invitrogen, Carlsbad, Calif.). cDNA was synthesized from 1 μg total RNA using Superscript II reverse transcriptase (Invitrogen, Carlsbad, Calif.). qPCR primers were designed with qPrimerDepot. Measured mRNA levels were normalized to those of 18S ribosomal RNA and expressed as fold change relative to those of control group.
Lipidomics analysis: For serum lipidomics analysis 25 μl serum were extracted by 4-fold cold chloroform:methanol (2:1) solution containing 2 μM LPC (17:0), PC (17:0), SM (17:0) and CER (17:0) (Avanti Polar Lipids, Alabaster, Ala.) as internal standards. The samples were vortexed for 30 s and then allowed to stand for 5 min at room temperature. The mixture was centrifuged at 13,000 rpm for 5 min and then the lower organic phase was collected and evaporated at room temperature under vacuum. The residue was dissolved in chloroform:methanol (1:1), followed by diluting with isopropanol:acetonitrile:H2O (2:1:1) containing 2 μM PC (17:0) prior to UPLC-MS analysis. For tissue lipidomics analysis, about 50 mg of accurately weighted tissues were homogenized with 700 μL methanol: H2O (4:3) solution and then extracted using 800 μL chloroform containing 2 μM LPC (17:0), SM (17:0) and CER (17:0) as internal standards. The homogenate was incubated at 37° C. for 20 min followed by centrifuged for 20 min at 13,000 rpm. The lower organic phase was transferred to a new tube and dried under vacuum. The residue was suspended with 100 chloroform:methanol (1:1) solution and then diluted with isopropanol:acetonitrile:H2O (2:1:1) solution containing 2 μM PC (17:0) before injection. […]

The test system of a further series is db/db mice. As to the kind of experiment: Gly-MCA in leptin receptor-deficient (db/db) mice.
Excerpt: as §1

The subject of a further series is HFD-induced obese mice. The experiment in a line: Gly-MCA in C57BL/6N mice made obese by 12 weeks of high-fat diet. Particulars: 5 mg/kg, 6 weeks. An excerpt: High-fat diet (HFD) (60% kcal consisting of fat) was purchased from Bioserv. […] Fxr^fl/fl and Fxr^ΔIE (Kim et al., J. Lipid Res. 48:2664-2672, 2007) mice were backcrossed with C57BL/6N mice for over 10 generations. For the antibiotic (the combination of bacitracin, neomycin, and streptomycin) study, male C57BL/6N mice from 6 weeks of age were fed a high-fat diet (“HFD) and administered 0.1% (w/v) of each compound (the combination of bacitracin, neomycin, and streptomycin) in the drinking water. […] For TβMCA in vivo, male C57BL/6N mice from 6 weeks of age were fed a HFD and treated with the antibiotics (0.1% of each compound of bacitracin, neomycin, and streptomycin combination) for 3 days. Vehicle (saline), TCA (400 mg/kg body weight, dissolved in saline) or a combination of TCA and TβMCA (400 mg/kg body weight of each compound, dissolved in saline) were orally administered to the mice and followed by a second dose 12 h later. The mice were killed 2 h later for tissue collection. For the Gly-MCA study, Gly-MCA was custom synthesized. […] Cumulative food intake and TEEbal were measured for 1 week in vehicle and Gly-MCA-treated mice from 6 to 7 weeks of HFD. TEEbal was measured as previously described (Ravussin et al., Int. J. Obesity 37:399-403, 2013).

The next series relates to gut microbiome. The experiment in a line: gut microbiome composition (16S rRNA gene sequencing, qPCR). On the technique in general: Quantitative PCR measures a nucleic acid by following its amplification.
Series [2] can be described thus: lipidomics: ceramides and free fatty acids in serum and ileum. Particulars: HFD 14 weeks.
The nature of series [3]: 1H NMR-based metabolomics of cecal contents and liver. The note with it: vs vehicle.
The mark [4] stands for this setting: db/db section of text, vs vehicle.
Setting [5] is: normal chow diet, 5 days tempol by gavage 250 mg/kg.
The mark [6] stands for this setting: wild-type mice on high-fat diet.

“Also recorded” adds a separate entry of the source.

Turning to `C[C@H](CCC(=O)NCC(=O)O)[C@H]1CC[C@H]2[C@@H]3[C@@H](O)[C@@H](O)[C@@H]4C[C@H](O)CC[C@]4(C)[C@H]3CC[C@]12C` [Gly-MCA, glycine-β-muricholic acid], in series [1], the “TCA levels in feces” value is reported as “significantly decreased”; the “ileum C16:0, C18:1, and C24:0 ceramides levels” value is reported as “reduced”; the “levels of T-β-MCA in feces” value was “significantly increased”; the “levels of TβMCA in the ileum” value is “significantly increased”. Further, in series [1], the “levels of taurine-conjugated bile acids in the ileum” value is listed as “increased”; the “serum C16:0, C20:0, C22:0, and C24:1 ceramides levels” value was “reduced”. Besides, in the series with db/db mice (db/db mice, 6 weeks), the “levels of T-α-MCA and TβMCA in feces” value was “significantly increased”; the “levels of T-α-MCA and TβMCA in ileum” value is “significantly increased”. Moreover, in the series on db/db mice (setting [4]), the “ileum C16:0, C18:0, C18:1, C20:0, C22:0, C24:0 and C24:1 ceramides levels” value is “reduced”; the “serum C16:0, C20:0, C22:0, and C24:1 ceramides levels” value is recorded as “reduced”. In addition, the “levels of TαMCA and TβMCA in feces” value in the series with HFD-induced obese mice is “significantly enhanced”.
As for `CC1(C)CC(O)CC(C)(C)N1[O]` [tempol, 4-hydroxy-2,2,6,6,-tetramethylpiperidine-1-oxyl], in the series on gut microbiome (HFD 12 weeks), the “Firmicutes abundance in cecal communities” value is given as “significantly decreased”; the “Proteobacteria abundance in cecal communities” value was “markedly increased”; the “genus Bacteroides and Streptococcus levels in cecum content” value is reported as “remained similar”; the “genus Clostridium sensu stricto and Lactobacillus levels in cecum content” value is listed as “significantly decreased”. Besides, in the series on gut microbiome (HFD 12 weeks), the “genus Desulfovibrio in cecum content” value is “major contributor of the increased Proteobacteria” and the “genus Roseburia in cecum content” value is given as “dramatic increase”. Besides, the “genus Lactobacillus of the Lactobacillaceae (feces)” value in the series on gut microbiome (coincident with BSH activity, FIGS. 17A and B) is recorded as “decreased”. Besides, in the series on gut microbiome (mice on a high fat diet), the “Firmicutes / Bacteroidetes (qPCR of fecal microbes)” value is given as “shift from Firmicutes to Bacteroidetes” and the “total bacteria (qPCR of fecal microbes)” value is on record as “remain unchanged”. Moreover, in the series with gut microbiome (setting [5]), the “family Lactobacillaceae (16S rRNA heat map)” value is “dramatically decreased” and the “genus Lactobacillus” value is listed as “robustly reduced”. In the series with gut microbiome (normal chow diet, 5 days tempol by gavage 250 mg/kg, 250 mg/kg), the “phylum-level gut microbiome composition in cecum” value is “shift from Firmicutes to Bacteroidetes; also recorded: Significant phylum-level shifts from Firmicutes to Bacteroidetes”. Besides, the “ileum and serum C16:0, C18:0, C20:0, C22:0, C24:0 and C24:1 ceramide levels” value in series [2] (Fxr^fl/fl mice) is recorded as “significantly decreased”. For the same compound, the “ileum and serum C16:0, C18:0, C20:0, C22:0, C24:0 and C24:1 ceramide levels” value in series [2] (Fxr^ΔIE mice) is given as “but not in Fxr^ΔIE mice”. In series [3] (setting [6]), the “levels of SCFAs (acetate, propionate, butyrate) in cecal contents” value is “significantly decreased”; the “levels of oligosaccharides and glucose in cecal contents” value was “significantly elevated”. In addition, the “liver levels of glucose, glycogen, bile acids, nucleotide metabolites, nicotinurate, choline” value in series [3] (wild-type mice) is “significantly elevated”.
